The target of the assay is T1, FAF1-ΔUBX(1–560) (murine) (UniProt P54731).
T1 sequence (chain, NanoTemper495-N-hydroxysuccinimide blue/red dye label (in the MST)): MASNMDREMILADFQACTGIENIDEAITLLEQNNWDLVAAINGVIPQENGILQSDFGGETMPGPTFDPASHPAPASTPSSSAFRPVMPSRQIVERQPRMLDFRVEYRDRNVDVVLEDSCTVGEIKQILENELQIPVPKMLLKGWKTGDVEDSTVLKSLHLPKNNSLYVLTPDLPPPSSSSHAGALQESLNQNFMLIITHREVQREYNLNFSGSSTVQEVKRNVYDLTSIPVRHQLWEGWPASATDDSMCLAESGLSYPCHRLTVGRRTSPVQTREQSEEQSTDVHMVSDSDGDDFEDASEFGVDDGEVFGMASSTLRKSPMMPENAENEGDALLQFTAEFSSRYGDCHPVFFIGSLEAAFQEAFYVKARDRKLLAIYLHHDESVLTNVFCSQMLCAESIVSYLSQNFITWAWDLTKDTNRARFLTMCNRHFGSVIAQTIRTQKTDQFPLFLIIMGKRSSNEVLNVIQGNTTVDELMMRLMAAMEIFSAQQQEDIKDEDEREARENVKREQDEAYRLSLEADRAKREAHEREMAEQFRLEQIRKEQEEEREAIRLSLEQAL
The assay is described as follows: condition: full-length p97 between 135 and 0.0041 μM; MST; 0.06 μM dye-labelled FAF1 kept constant, full-length p97 titrated between 135 and 0.0041 μM; 20 mM HEPES, 150 mM KCl, pH 7.4; 30 °C; average of two experiments, Hill equation fit; both purified.

No constants are given. Whether binding was seen depends on the method and setting.

In paper PMC4002113 one finds binding data, which are given here for one substance.

With “C-terminally His-tagged full-length p97 (residues 1–806) (from UniProt Q01853 1-806)”, the binding entry was “no binding”.
